The results in this text go back to patent publication US20110195849A1.

The chains behind the UniProt entries cited, without tags or fusion partners. Where a name states a change or a piece, a line headed by the entry shows the natural chain unless it says otherwise. Residues count along the entry.
UniProt P02769, residues 25-607: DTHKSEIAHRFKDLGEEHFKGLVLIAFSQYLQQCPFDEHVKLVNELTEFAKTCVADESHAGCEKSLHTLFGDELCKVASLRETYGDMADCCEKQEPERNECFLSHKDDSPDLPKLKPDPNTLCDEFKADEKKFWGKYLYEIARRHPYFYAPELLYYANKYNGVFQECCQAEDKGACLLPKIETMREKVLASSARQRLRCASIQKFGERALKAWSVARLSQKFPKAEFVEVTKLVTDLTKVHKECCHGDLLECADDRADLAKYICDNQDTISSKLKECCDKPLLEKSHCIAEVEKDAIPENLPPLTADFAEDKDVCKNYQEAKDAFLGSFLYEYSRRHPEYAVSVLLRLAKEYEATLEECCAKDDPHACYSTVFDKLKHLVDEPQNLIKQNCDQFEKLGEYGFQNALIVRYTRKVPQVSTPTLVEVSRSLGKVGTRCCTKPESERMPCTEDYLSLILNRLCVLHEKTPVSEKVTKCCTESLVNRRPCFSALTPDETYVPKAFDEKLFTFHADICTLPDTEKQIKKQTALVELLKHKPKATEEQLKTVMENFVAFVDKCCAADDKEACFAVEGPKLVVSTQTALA
UniProt P40692: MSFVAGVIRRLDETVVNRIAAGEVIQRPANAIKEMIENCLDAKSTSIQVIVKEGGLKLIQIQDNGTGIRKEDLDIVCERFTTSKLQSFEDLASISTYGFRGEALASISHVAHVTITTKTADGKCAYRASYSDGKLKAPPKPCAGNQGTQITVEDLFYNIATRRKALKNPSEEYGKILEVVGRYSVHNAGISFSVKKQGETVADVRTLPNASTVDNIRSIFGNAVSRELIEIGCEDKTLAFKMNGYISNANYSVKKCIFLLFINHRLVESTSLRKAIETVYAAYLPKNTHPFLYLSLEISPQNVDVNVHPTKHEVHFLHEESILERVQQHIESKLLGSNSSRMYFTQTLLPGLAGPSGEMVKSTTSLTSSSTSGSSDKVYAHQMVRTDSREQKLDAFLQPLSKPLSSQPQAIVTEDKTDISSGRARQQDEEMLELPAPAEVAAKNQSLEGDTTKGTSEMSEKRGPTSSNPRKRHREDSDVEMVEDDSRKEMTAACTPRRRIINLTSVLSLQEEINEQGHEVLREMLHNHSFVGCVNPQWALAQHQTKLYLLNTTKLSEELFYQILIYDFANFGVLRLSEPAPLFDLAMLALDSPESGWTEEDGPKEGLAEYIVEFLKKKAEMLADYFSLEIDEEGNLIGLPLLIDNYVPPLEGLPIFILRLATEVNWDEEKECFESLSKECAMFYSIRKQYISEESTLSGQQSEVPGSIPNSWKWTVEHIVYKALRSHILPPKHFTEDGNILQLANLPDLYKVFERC
UniProt P12004: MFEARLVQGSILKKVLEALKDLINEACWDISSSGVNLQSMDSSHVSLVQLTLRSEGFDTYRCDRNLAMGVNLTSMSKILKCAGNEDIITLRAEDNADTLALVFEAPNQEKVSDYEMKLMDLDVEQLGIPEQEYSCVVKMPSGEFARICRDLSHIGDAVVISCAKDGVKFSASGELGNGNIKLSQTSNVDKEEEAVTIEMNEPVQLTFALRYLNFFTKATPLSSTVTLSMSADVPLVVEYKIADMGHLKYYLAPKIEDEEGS

Results are given in words; binding and its absence hold for the method and conditions named.

Test [1] deals with BSA (Bos taurus) (UniProt P02769). Briefly: far-western after 7% SDS-PAGE and transfer to nitrocellulose, MutLα in solution, anti-MLH1 detection [right panel (MutLα far western].
The target is the same in test [2]. Nature of the test: condition: 4 pmol BSA spotted, 0.18 µM MutLα in solution; far-western dot blot, 0.25-4 pmol protein spotted on nitrocellulose, MutLα in solution, anti-MLH1 detection [lower blot (MutLα].
Test [3] has the same target. Briefly: condition: 4 pmol BSA spotted, 0.18 µM PCNA in solution; far-western dot blot, 0.25-4 pmol protein spotted on nitrocellulose, PCNA in solution, anti-PCNA detection [upper blot (PCNA].

In the case of “MutLα (MLH1-PMS2) (from UniProt P40692 1-756; P54278 1-862) (enzyme)”, the binding entry was “no binding (tested: 0.09 µM MutLα, 2 pmol protein on the gel)” in test [1] and “no binding” in test [2]. Consider PCNA (from UniProt P12004 1-261), for which, in test [3], the binding result is recorded as “no binding”.
